These are yes or no findings as the source states them, for the method shown. In cells and extracts the contact can be indirect. For some of these results: Binding calls can cover weak binding; strength is not graded here. For some of these results: Where a sequence is shown, tags or fusion partners need not be part of it.

Our source for the binding values is PMC8062265.

Assay [1] addresses T1, flag-tagged full-length (FL)-TMCC3, in MDA-MB231 (human) (UniProt Q9ULS5).
T1 sequence: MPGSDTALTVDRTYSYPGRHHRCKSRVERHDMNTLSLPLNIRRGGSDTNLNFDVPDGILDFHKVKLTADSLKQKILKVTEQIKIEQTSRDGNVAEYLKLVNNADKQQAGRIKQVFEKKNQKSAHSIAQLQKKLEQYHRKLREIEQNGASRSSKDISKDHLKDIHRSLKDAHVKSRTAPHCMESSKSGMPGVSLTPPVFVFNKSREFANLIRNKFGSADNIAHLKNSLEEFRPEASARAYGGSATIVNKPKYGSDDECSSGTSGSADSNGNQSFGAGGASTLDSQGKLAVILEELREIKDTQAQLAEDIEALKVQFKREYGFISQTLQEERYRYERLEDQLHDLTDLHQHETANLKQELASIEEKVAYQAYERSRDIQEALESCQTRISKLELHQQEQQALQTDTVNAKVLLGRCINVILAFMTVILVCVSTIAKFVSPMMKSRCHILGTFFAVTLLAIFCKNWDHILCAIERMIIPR
Briefly: co-IP; MDA-MB231 cells transfected with flag-tagged FL-TMCC3 and HA-tagged AKT; precipitation with anti-flag or anti-HA antibody, then immunoblotting.

Assay [2] deals with T2, transmembrane and coiled-coil domain family 3 (TMCC3), endogenous in AS-B634 (human (endogenous in AS-B634)) (UniProt Q9ULS5).
T2 sequence: T1 sequence
Briefly: co-IP; endogenous TMCC3 precipitated from AS-B634 with anti-TMCC3 antibody; AKT detected in the immunoprecipitate.

Assay [3] deals with T3, flag-tagged 1-153 a.a. domain of TMCC3 (human) (UniProt Q9ULS5).
T3 sequence: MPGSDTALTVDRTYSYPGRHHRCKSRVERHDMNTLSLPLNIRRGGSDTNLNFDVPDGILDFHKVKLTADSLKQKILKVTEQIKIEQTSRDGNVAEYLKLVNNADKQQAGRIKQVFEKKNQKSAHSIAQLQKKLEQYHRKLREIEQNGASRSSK
Description: co-IP; 293T cells co-transfected with flag-tagged TMCC3 (full-length or truncated) and HA-tagged AKT; anti-flag precipitation, blot with anti-HA antibody.

The target of assay [4] is T4, flag-tagged 1-282 a.a. domain of TMCC3 (human) (UniProt Q9ULS5).
T4 sequence: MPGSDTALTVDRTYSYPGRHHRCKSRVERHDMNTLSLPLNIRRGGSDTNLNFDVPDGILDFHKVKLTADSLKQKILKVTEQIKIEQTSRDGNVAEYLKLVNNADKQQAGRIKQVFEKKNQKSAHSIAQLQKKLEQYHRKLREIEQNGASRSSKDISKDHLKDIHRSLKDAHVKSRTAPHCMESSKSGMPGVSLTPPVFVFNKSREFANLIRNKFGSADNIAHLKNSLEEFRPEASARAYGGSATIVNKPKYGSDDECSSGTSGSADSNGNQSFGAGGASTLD
The assay is described as above.

Assay [5] has as its target T5, flag-tagged 283-416 a.a. domain of TMCC3 (human) (UniProt Q9ULS5).
T5 sequence: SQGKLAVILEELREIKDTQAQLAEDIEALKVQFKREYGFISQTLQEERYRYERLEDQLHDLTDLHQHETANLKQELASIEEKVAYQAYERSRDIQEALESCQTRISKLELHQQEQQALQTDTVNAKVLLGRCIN
The description is as above.

Assay [6] concerns the target T6, flag-tagged full-length (1-477) TMCC3, in 293T (human) (UniProt Q9ULS5).
T6 sequence: T1 sequence
The description is as above.

Assay [7] concerns the target HA-tagged AKT, in MDA-MB231. Description: co-IP; MDA-MB231 cells transfected with flag-tagged FL-TMCC3 and HA-tagged AKT; precipitation with anti-flag or anti-HA antibody, then immunoblotting. (In general: Immunoblotting shows a protein as a band on a membrane.)

For HA-tagged AKT, in MDA-MB231, the binding result in assay [1] is listed as “binds”.

On to “AKT, endogenous in AS-B634 (human (endogenous in AS-B634))”, for which the binding result in assay [2] was “binds”.

With HA-tagged AKT, in 293T, the binding entry in assay [3] is recorded as “binds”; in assay [4], “binds”; in assay [5], “no binding”; in assay [6] it was “binds”.

B1: flag-tagged full-length (FL)-TMCC3, in MDA-MB231 (protein, UniProt Q9ULS5 1-477)
chain: T1 sequence
Take B1: the binding entry in assay [7] is listed as “binds”.
